# In PubChem BioAssay AID2517 (National Center for Advancing Translational Sciences (NCATS), 2010):
# Chains of the proteins cited; added tags and fusions are not shown.
# UniProt P27695, whole entry, looked up: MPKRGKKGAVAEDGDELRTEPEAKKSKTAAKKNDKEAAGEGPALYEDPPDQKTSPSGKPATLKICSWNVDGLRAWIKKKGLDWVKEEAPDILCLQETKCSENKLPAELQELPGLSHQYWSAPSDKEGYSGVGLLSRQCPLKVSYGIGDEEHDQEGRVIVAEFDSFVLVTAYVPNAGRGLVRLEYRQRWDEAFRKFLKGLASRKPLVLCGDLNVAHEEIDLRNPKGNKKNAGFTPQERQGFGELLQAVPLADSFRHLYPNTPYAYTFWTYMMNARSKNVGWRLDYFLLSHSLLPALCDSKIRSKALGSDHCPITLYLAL
# Hit rate of the full screen: of about 350,000 compounds, about 1,200 (0.34%) were called active. Inconclusive means that the source gave no clear call. Such entries were picked first, then a sample of the others. Calls follow the shape of the dose curve; as a rule, active = well fitted inhibition curve with a large enough effect; inconclusive = small, poorly fitted or top-dose-only effect; inactive = no such curve, though single readings can be large or run the other way. Potencies beside an inconclusive call are fits to weak or partial responses and may not hold up.
# Target: DNA repair nuclease/redox regulator APEX1 (Homo sapiens) (UniProt P27695)
# Assay: qHTS Assay for Inhibitors of the Human Apurinic/apyrimidinic Endonuclease 1 (APE1); also: nearly all actives have a fitted effect of over 55% in size;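 as to activity change, negative = inhibition: plate controls were vehicle for no effect and reference inhibitor for full effect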
# Conditions: recombinant APE1, TAMRA/BHQ-2 abasic DNA cleavage fluorescence; activity change, negative = inhibition: at 65.8 µM (top of the series)
# Procedure, shortened: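 Measures dequenching upon AP-site incision of a 5'-TAMRA/3'-BHQ-2 THF-containing duplex, 50 nM; human APE1 0.75 nM after 15 min room-temperature exposure to compound; kinetic three-point read at one-minute spacing.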
# Potency is read from the fitted curve at half-maximal effect.
Structure (SMILES),Potency,"activity change, negative = inhibition"
CCOC(=O)CSc1nc(-c2ccccc2)nc2ccccc12,"inconclusive: 44.7 µM [inhibitor, single point]",
CCCCS(=O)(=O)/C=C\C=C/S(=O)(=O)CCCC,"inconclusive: 20 µM [inhibitor, partial curve, poor fit]",
c1ccc2c(c1)nc(N1CCOCC1)c1nncn12,"inconclusive: 0.1 µM [inhibitor, full curve]",
O=C1C(c2[nH]c3ccc(S(=O)(=O)O)cc3c2O)=Nc2ccc(S(=O)(=O)O)cc21,"inconclusive: 15.8 µM [inhibitor, partial curve]",
Cn1ccc(=NC=C(C#N)C#N)c2ccccc21,"inconclusive: 44.7 µM [inhibitor, single point]",
CC(=O)Oc1ccc2occ(-c3ccccc3)c2c1,,inactive: 1.71%
COc1ccc(/C=C/C(=O)CC(=O)/C=C/c2cccc(O)c2OC)cc1O,"inconclusive: 0.891 µM [inhibitor, full curve, poor fit]",
CCC(C)NC(=O)C1CCN(CCCc2ccccc2)CC1 (configuration not stated),"inconclusive: 33.6 µM [inhibitor, single point]",
CCn1c2ccccc2c2cc(NS(=O)(=O)c3ccccc3C)ccc21,"inconclusive: 39.8 µM [inhibitor, single point]",
COc1ccc(S(=O)(=O)Nc2ccc3c(c2)OCO3)cc1,,inactive: 9.34%
O=[N+]([O-])c1cccnc1Oc1ccccc1F,"inconclusive: 3.55 µM [inhibitor, partial curve, poor fit]",
COc1ccc(N2CC(C(=O)Nc3ccc(S(=O)(=O)Nc4nccs4)cc3)CC2=O)c(OC)c1 (configuration not stated),,inactive: 13.7%
CC(NC(=O)CSc1cccc(C(F)(F)F)c1)c1ccccc1 (configuration not stated),"inconclusive: 0.0056 µM [inhibitor, full curve, poor fit]",
O=[N+]([O-])c1cccc(NC(=S)NCc2ccncc2)c1,"inconclusive: 28.2 µM [inhibitor, partial curve]",
O=C1NC[C@H](Cc2ccc(O)cc2)N(CCc2cccc3ccccc23)C1=O,"inconclusive: 22.4 µM [inhibitor, single point]",
COc1cc(/C=N/NC(=O)CNC(=O)c2ccc3c(c2)OCCO3)ccc1O,"inconclusive: 44.7 µM [inhibitor, single point]",
COc1cc(/C=C2\SC(=Nc3ccc(O)cc3)NC2=O)cc(OC)c1O,,inactive: -13%
Cc1cc2c(cc1Cl)C(c1ccc3c(c1)OCO3)CC(=O)O2 (configuration not stated),,inactive: -1.23%
COc1ccc(C(=O)N/N=C\c2ccoc2)cc1,"inconclusive: 21.2 µM [inhibitor, partial curve]",
CN1CCc2cccc3c2[C@H]1Cc1ccc(O)c(O)c1-3,inactive,
Cc1ccc(NC(=S)NC2CCCCC2)cc1S(=O)(=O)N(C)C,"inconclusive: 8.91 µM [inhibitor, single point]",
COc1cc(/C=C(\C#N)c2nc3ccccc3s2)cc([N+](=O)[O-])c1O,"inconclusive: 31.6 µM [inhibitor, single point]",
CCn1c(CSc2nnc(-c3ccncc3)n2C)nc2cc(C(=O)O)ccc21,,inactive: -9.77%

# By substructure: the entries above containing four or more nitrogen atoms.
Structure (SMILES),Potency,"activity change, negative = inhibition"
c1ccc2c(c1)nc(N1CCOCC1)c1nncn12,"inconclusive: 0.1 µM [inhibitor, full curve]",
Cn1ccc(=NC=C(C#N)C#N)c2ccccc21,"inconclusive: 44.7 µM [inhibitor, single point]",
COc1ccc(N2CC(C(=O)Nc3ccc(S(=O)(=O)Nc4nccs4)cc3)CC2=O)c(OC)c1 (configuration not stated),,inactive: 13.7%
O=[N+]([O-])c1cccc(NC(=S)NCc2ccncc2)c1,"inconclusive: 28.2 µM [inhibitor, partial curve]",
CCn1c(CSc2nnc(-c3ccncc3)n2C)nc2cc(C(=O)O)ccc21,,inactive: -9.77%

# Continuation.

Structure (SMILES),Potency,"activity change, negative = inhibition"
Cc1ccc(OCC(=O)NNC(=O)Cn2nnc(-c3ccccc3)n2)cc1,"inconclusive: 35.5 µM [inhibitor, single point]",
CCOC(=O)c1c(C)n(C)c2ccc(OCC(N)=O)cc12,"inconclusive: 31.6 µM [inhibitor, partial curve]",
O=C(COC(=O)CCCc1nc2ccccc2s1)NC(=O)NCc1ccco1,"inconclusive: 5.01 µM [inhibitor, single point]",
O=C1CN(C(=O)COC(=O)c2ccc([N+](=O)[O-])o2)c2ccccc2N1,"inconclusive: 33.6 µM [inhibitor, single point]",
CC(C)CN(C(=O)CC1OC(=O)c2ccccc21)c1c(N)n(Cc2ccccc2)c(=O)[nH]c1=O (configuration not stated),,inconclusive: -6.12% [inhibitor]
Nc1nc(CCOc2ccc(F)cc2)cs1,"inconclusive: 2.82 µM [inhibitor, full curve]",
COc1ccc(Sc2ccc(/C=C3\C(=O)NN(c4ccccc4)C3=O)o2)cc1,,inactive: -7.06%
Cc1nc(C2CCC3C4CCC5=CC(=O)CC[C@]5(C)C4CC[C@]23C)cs1 (some centres not stated),"inconclusive: 0.0018 µM [inhibitor, full curve, poor fit]",
O=C1NC(=S)S/C1=C\c1ccc(SCc2ccccc2)o1,"inconclusive: 44.7 µM [inhibitor, single point]",
COc1ccc(NC(=O)Nc2nnc(N3CCC(C)CC3)s2)cc1OC,"inconclusive: 5.01 µM [inhibitor, single point]",
O=C(CCS(=O)(=O)c1ccc(Br)cc1)Nc1ccc(Cl)cc1F,,inactive: 0.93%
COC(=O)[C@H]1C2CC3c4[nH]c5ccccc5c4CCN3CC2CC[C@@H]1O (some centres not stated),,inactive: 5.97%
CCCC[C@H](NC(C)=O)C(=O)N[C@H]1CC(=O)NCCCC[C@@H](C(N)=O)NC(=O)[C@H](Cc2c[nH]c3ccccc23)NC(=O)[C@H](CCCN=C(N)N)NC(=O)[C@@H](Cc2ccccc2)NC(=O)[C@H](Cc2cnc[nH]2)NC1=O,,inactive: -1.84%
COc1cccc(N=Cc2c(O)n(-c3cccc(C)n3)c(=O)c3ccccc23)c1,"inconclusive: 1.26 µM [inhibitor, full curve, poor fit]",
O=c1cc(-c2ccc(O)c(O)c2)oc2ccc3ccccc3c12,active: 0.423 µM,
CC(C)(C)C1=CC(=Nc2ccccc2N)C=C(C(C)(C)C)C1=O,,inactive: 4.72%
O=C(/C=C/c1ccco1)N1CCN(c2ncccn2)CC1,"inconclusive: 20 µM [inhibitor, partial curve]",
Cc1ccc(C)c2c1[nH]c1ccccc12,"inconclusive: 31.6 µM [inhibitor, single point]",
O=C(N/N=C/c1ccc([N+](=O)[O-])o1)c1cc2ccccc2o1,"inconclusive: 31.6 µM [inhibitor, single point]",
CC(C)Sc1nc2ccccc2c(=O)[nH]1,"inconclusive: 2.82 µM [inhibitor, partial curve]",
Cc1csc(OCC(=O)Nc2ccc(C)c(C)c2)n1,"inconclusive: 44.7 µM [inhibitor, single point]",
CC(C)CCNC(=O)C1CC(c2ccccc2C(F)(F)F)=NO1 (configuration not stated),"inconclusive: 3.55 µM [inhibitor, single point]",
COc1ccc(C/C(N)=N/OC(=O)c2cccc([N+](=O)[O-])c2)cc1,"inconclusive: 11.2 µM [inhibitor, partial curve, poor fit]",

Structure (SMILES),Potency,"activity change, negative = inhibition"
Cc1ccccc1CN1CCc2c(OCC(=O)N3CCCCC3)cccc2C1=O,"inconclusive: 56.2 µM [inhibitor, partial curve, poor fit]",
CCOC(=O)c1sc2nc(CC(=O)OC)nc(N3CCN(c4ccc(OC)cc4)CC3)c2c1C,"inconclusive: 35.5 µM [inhibitor, single point]",
COCCNC(=O)C(c1ccc(C)cc1)N(C(=O)CCC(=O)Nc1ccccn1)C1CCCCC1 (configuration not stated),,inactive: 10.5%
O=C(N/N=C/c1cccs1)c1ccc(NC(=O)c2ccccc2Cl)cc1,"inconclusive: 0.891 µM [inhibitor, partial curve]",
COC(=O)[C@@]1(Cc2ccc(OC)cc2)[C@@H]2C(=CC(=O)[C@H]2CC(=O)C(=O)N2CCCC2)CN1C(=O)c1ccccc1,"inconclusive: 7.94 µM [inhibitor, single point]",
CCn1ccnc1CN(C)Cc1cn(-c2cccc(C)c2)nc1-c1cccc(F)c1,"inconclusive: 35.5 µM [inhibitor, single point]",
CC(=O)Nc1c(C)cc(S(C)(=O)=O)cc1C,"inconclusive: 0.251 µM [inhibitor, full curve, poor fit]",
COc1ccc2[nH]c(I)c(CCNC(C)=O)c2c1,"inconclusive: 28.2 µM [inhibitor, partial curve, poor fit]",
C/C=C1\CC2C=CC1C2 (configuration not stated),,inactive: 2.4%
CCC(=O)Nc1cccc(SC)c1,,inactive: -1.02%
CCOc1cc(/C=C2\C(=O)ON=C2C)ccc1OCc1ccccc1,"inconclusive: 3.55 µM [inhibitor, partial curve]",
O=C(NC1CC1)C1=C[C@H](c2c[nH]c3ccccc23)C[C@H](OCCCCO)O1,,inactive: -0.781%
CC(C)NC(=O)COC(=O)c1ccccc1C(=O)c1ccccc1,"inconclusive: 8.91 µM [inhibitor, single point]",
Cc1ccc2nc(N=C(N)N)nc(C)c2c1,"inconclusive: 14.1 µM [inhibitor, partial curve, poor fit]",
CCC(C)C(NC(=O)C(Cc1ccc(O)cc1)NC(=O)C(N)C(C)C)C(=O)NC(Cc1cnc[nH]1)C(=O)N1CCCC1C(=O)NC(Cc1ccccc1)C(=O)O (configuration not stated),"inconclusive: 11.2 µM [inhibitor, partial curve]",
Cc1ccccc1NC(=S)N(Cc1cccnc1)Cc1ccco1,"inconclusive: 4.47 µM [inhibitor, full curve, poor fit]",
Cn1cnnc1SCC(=O)Nc1sc2c(c1C(N)=O)CCC2,"inconclusive: 31.6 µM [inhibitor, partial curve]",
CC(C)(O)CCCC(C)(O)c1ccc(C(=O)O)cc1O (configuration not stated),"inconclusive: 31.6 µM [inhibitor, partial curve]",
Cc1ccc(NC(=S)NCC2CCN(C(C)c3ccccc3)C2)cc1C (configuration not stated),"inconclusive: 15.8 µM [inhibitor, partial curve, poor fit]",
CCOCCCNC(=O)C(NC(=O)c1ccc(=O)[nH]c1)c1ccc(Cl)cc1 (configuration not stated),"inconclusive: 25.1 µM [inhibitor, partial curve]",
CCC(CC)c1nnc(NC(=O)Cc2cccs2)s1,,inactive: -4.09%
